{
  "source": "patent US12629424B2",
  "about": "“Targeting Pleckstrin-2 for treating cancer” (Northwestern University, priority 2018, dated 2026)",
  "system": "GFP-Plek2 in Jurkat cells",
  "experiment": "GFP-Plek2 membrane localization in Jurkat cells (live confocal imaging)",
  "assay_type": "cell-based",
  "conditions": "100 nM wortmannin",
  "note": "At least one compound was matched to its structure with a doubt left.",
  "data": [
    {"smiles": "COC[C@H]1OC(=O)c2coc3c2[C@@]1(C)C1=C(C3=O)[C@@H]2CCC(=O)[C@@]2(C)C[C@H]1OC(C)=O", "note": "[wortmannin]", "values": [
      {"measurement": "Plek2 cell membrane localization", "value": "significantly disrupted"}
    ]}
  ]
}
